Assay results from patent US20080089886A1.
Results are given in words; binding and its absence hold for the method and conditions named. Some entries that bind do so weakly or less than the wild type. Blank lines part the entries; values can stand above or below the binder they belong to.

What was measured:
[1] = target: T1, recombinant C35 protein generated and purified from E. coli (human) (UniProt Q9BRT3); assay: Western blot, 100 ng purified recombinant C35 per lane, β-galactosidase as control lane
T1 sequence: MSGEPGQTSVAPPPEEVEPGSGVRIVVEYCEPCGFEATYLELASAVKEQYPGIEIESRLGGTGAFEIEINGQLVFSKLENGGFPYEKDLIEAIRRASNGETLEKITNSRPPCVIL

[2] = target: T1, recombinant C35 protein generated and purified from E. coli (human); assay: Western blot with hybridoma supernatant (legend of FIG. 20)
[3] = target: T1, recombinant C35 protein generated and purified from E. coli (human); assay: ELISA, hybridoma supernatant on C35-coated plates
[4] = target: T1, recombinant C35 protein generated and purified from E. coli (human); assay: ELISA and Western blot
[5] = target: T1, recombinant C35 protein generated and purified from E. coli (human); assay: Western blot, 100 ng purified recombinant C35 per lane, 18% SDS-PAGE, PVDF, hybridoma supernatant, goat anti-mouse IgG-HRP, ECL
[6] = target: T1, recombinant C35 protein generated and purified from E. coli (human); assay: immunohistochemistry with soluble C35 protein as competitor (data not shown)
[7] = target: T1, recombinant C35 protein generated and purified from E. coli (human); assay: ELISA, plate coated with E. coli-derived C35 protein, hybridoma supernatant, HRP anti-mouse antibody, OPD
[8] = target: T2, C35 protein, recombinant (bacterially synthesized) (human) (UniProt Q9BRT3); assay: Western blot of recombinant C35 protein
T2 sequence: T1 sequence

[9] = target: T2, C35 protein, recombinant (bacterially synthesized) (human); assay: ELISA screen of hybridoma supernatants on plates coated with C35 protein

binding [1]: binds
binding [2]: binds
binding [3]: binds
binding [4]: binds
binding [5]: binds
binding [6]: binds
binding [7]: binds
B1: 1F2 monoclonal antibody (antibody, mouse IgG1, V domains shown)
VH: DVQLQESGPGLVKPSQSLSLTCSVTGYSITSGYFWNWIRQFPGNKLEWMGYISYDGSNNSNPSLKNRISFTRDTSKNQFFLKFNSVTTDDSAAYYCTRGTTGFAYWGQGTLVTVSA
VL: QIVLTQSPAIMSASPGEKVTISCSASSSVSYMNWYQQKPGSSPKPWIYHTSNLASGVPARFSGSGSGTSYSLTISSMEAEDAATYYCQQYHSYPPTFGGGTKLEIK

binding [9]: binds
B3: murine monoclonal antibody 1E11 (antibody, IgG1, V domains shown)
VH: B1 VH
VL: B1 VL

binding [3]: binds
binding [7]: binds
B4: 1E11 hybridoma antibody (antibody, mouse IgG1, V domains shown)
VH: B1 VH
VL: B1 VL

Continued, binder first:

B2: murine monoclonal antibody 1F2 (antibody, IgG1, V domains shown)
VH: B1 VH
VL: B1 VL
binding [8]: binds
binding [9]: binds

B5: 3E10 hybridoma antibody (antibody, mouse IgG1, V domains shown)
VH: EVQLQESGPSLVKPSQTLSLTCSVTGDSITSGYWNWIRKFPGNKLEYVGYISYSGGTYYNPSLKSRISITRDTSKNHYYLQLNSVTTEDTATYYCARGAYYGGAFFPYFDVWGAGTTVTVSS
VL: DVQITQSPSFLAASPGETITINCRASKYISKHLVWYQEKPGETKKLLIYSGSTLQSGLPSRFSGSGSGTDFTLTISSLEPEDFAMYYCQQHNEYPLTFGAGTKLELK
binding [1]: binds
binding [2]: binds
binding [3]: binds
binding [4]: binds
binding [5]: binds
binding [7]: binds

B6: murine monoclonal antibody 3E10 (antibody, IgG1, V domains shown)
VH: B5 VH
VL: B5 VL
binding [8]: binds
binding [9]: binds
